Source: paper PMC2719692
Construct, isoform or probe ends are uncertain for at least one entry. For part of these data: Negatives hold for the conditions tested. Tags and fusion partners may be left off the protein sequences shown.

Legend:
Test in all cases: EMSA
Details in all cases: EMSA: 40 mM NaCl, 5 mM MgCl2, 30 mM Tris-HCl pH 7.6, 2 mM DTT, protease inhibitors, 22 °C 15 min, then RNase T1 (described for CHO extract); 12 fmol RNA in …; recombinant protein; protein details: N-terminal GST; label: 32P (alpha-32P CTP); probe letters rebuilt from the primers and the genome
[1] = target: T1, eEF1α domain I (GST fusion) (rat) (UniProt P62630)
T1 sequence (looked up, limits assumed): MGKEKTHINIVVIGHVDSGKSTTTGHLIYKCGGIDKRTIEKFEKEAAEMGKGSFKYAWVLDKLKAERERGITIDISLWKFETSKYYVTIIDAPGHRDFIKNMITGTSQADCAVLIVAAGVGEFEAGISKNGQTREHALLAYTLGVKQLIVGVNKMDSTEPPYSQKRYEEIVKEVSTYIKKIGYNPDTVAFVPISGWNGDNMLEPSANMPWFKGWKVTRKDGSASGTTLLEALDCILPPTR

[2] = target: T2, eEF1α domain II (GST fusion) (rat) (UniProt P62630)
T2 sequence (looked up, limits assumed): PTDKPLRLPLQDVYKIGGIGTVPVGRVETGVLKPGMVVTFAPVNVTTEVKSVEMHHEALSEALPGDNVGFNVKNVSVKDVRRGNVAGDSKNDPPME

[3] = target: T3, eEF1α domain III (GST fusion) (rat) (UniProt P62630)
T3 sequence (looked up, limits assumed): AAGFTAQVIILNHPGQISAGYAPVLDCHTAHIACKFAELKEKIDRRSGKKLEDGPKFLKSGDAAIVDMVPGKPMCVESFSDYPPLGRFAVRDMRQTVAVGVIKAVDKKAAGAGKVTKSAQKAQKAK

“GGAGUGACGAACAGUGCUGCUGCCCUCAGGUGUAAAUAAUUUCCGGACCAACUCAGAGUCUUGCCGUACACCUCCACCCAGUUUACUAAACCCCGUUUUCUACCGAGCAUGUG [MT-111 (MT-1 3′UTR nt 1-111)]”: binds [1]; no binding [2]; binds [3].
